Data taken from PubChem BioAssay AID2685 (National Center for Advancing Translational Sciences (NCATS), 2010).
The other results are listed elsewhere or left out. These are further read-outs of the screen, such as a control signal, another cell line or another target. No call is given for them. Compounds called inactive in the main read-out are mostly missing here. The note in brackets gives the kind of curve behind each potency; many fits are weak.

Experiment: qHTS Assay for Lipid Storage Modulators in Drosophila S3 Cells;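 for cell number change: cells counted by Cell Tracker Red CMTPX staining in the red channel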
Details: BODIPY lipid droplet fluorescence, 18-24 h; for cell number change: measured here: cell count max response, cells fed with added oleic acid
Outline: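 Laser-scanning cytometry quantifies lipid droplet accumulation (500–530 nm total intensity; droplet/cell object ratio) in oleic acid-fed (400 uM added) Drosophila S3 cells treated with a concentration series. 20 uM Triacsin C defined 100% inhibition.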

[1] = measured here: lipid fluorescence (Fed channel) AC50, cells fed with added oleic acid
[2] = measured here: cell number channel AC50, cells fed with added oleic acid

SMILES | cell number change [%] | AC50 [1] | AC50 [2]
CN(C)S(=O)(=O)N1CCCN(S(=O)(=O)N(C)C)CC1 | -29 | 2.06 µM [falling, full curve] | 
O=C1C(Cl)=C(N2CCC(C(=O)O)CC2)C(=O)c2ccccc21 | -34.3 | 18.4 µM [falling, single point] | 18.4 µM [falling, single point]
CC[N+](C)(C)CCN(Cc1ccc(Cl)cc1)c1ccccn1 | -36.9 |  | 29.1 µM [falling, single point]
COc1ccc(C2C=C(c3ccccc3)Nc3nc(NC(C)=O)nn32)cc1 (centres undefined) | 4.89 | 5.17 µM [rising, full curve] | 
CC(=O)Nc1nc2c(c3c1c(=O)oc1ccccc13)CCCC2 | -15.3 | 13 µM [falling, partial curve] | 
COc1cc(OC)cc(C(=O)N[C@H](C(=O)NCCc2ccc(S(N)(=O)=O)cc2)C(C)C)c1 | 6.84 | 6.51 µM [falling, single point] | 
COc1ccccc1NS(=O)(=O)c1ccc(-c2cnc(C3CC3)o2)cc1 | -7.79 | 29.1 µM [rising, single point] | 
O=C1Nc2ccccc2/C1=C\C(=O)c1ccccc1 | -50 | 1.64 µM [falling, partial curve] | 20.6 µM [falling, single point]
CCOc1ccccc1OCC(=O)Nc1nnc(C)s1 | 60.1 | 29.1 µM [rising, single point] | 
Cn1c(N2CCN(C(=O)NCc3ccccc3)CC2)nc2ccccc21 | -19.6 |  | 
Cc1cc(N2CCCC2)ccc1NC(=O)COc1ccccc1 | 84.7 |  | 18.4 µM [rising, partial curve]
O=C(CCS(=O)(=O)c1ccc2c(c1)NC(=O)CO2)NCCc1ccccc1 | 35.5 |  | 6.51 µM [rising, partial curve]
C=CCc1cc(Cl)ccc1OCCNCCOC | 26.1 | 0.13 µM [rising, full curve, poor fit] | 
COc1cccc(NC(=O)Nc2ccc(Cc3ccncc3)cc2)c1 | 13.6 | 7.31 µM [rising, partial curve] | 
C/C(=N\NS(=O)(=O)c1ccc(Cl)cc1)c1ccc(NC(=O)c2ccco2)cc1 | -3.73 |  | 
CC(C)C(OC(=O)CN1C(=O)c2ccccc2C1=O)C(=O)NC1CCCCC1 (centres undefined) | -7.39 |  | 
CSc1ncccc1C(=O)OCc1ccc([N+](=O)[O-])cc1 | -9.65 |  | 
O=C(c1ccc(Br)c(S(=O)(=O)N2CCCCC2)c1)N1CCCCC1 | 31.3 |  | 35.5 µM [rising, partial curve, poor fit]

An excerpt from above with just AC50 [2] and AC50 [1]:
SMILES | AC50 [2] | AC50 [1]
COc1ccc(C2C=C(c3ccccc3)Nc3nc(NC(C)=O)nn32)cc1 (centres undefined) |  | 5.17 µM [rising, full curve]
CC(=O)Nc1nc2c(c3c1c(=O)oc1ccccc13)CCCC2 |  | 13 µM [falling, partial curve]
